± gives the standard deviation of the averaged measurements. Most values lie at the level of the controls, where differences are scatter.
What was measured:
Experiment in all cases: level (log10 ratio to DMSO vehicle control); higher = higher biomarker level / cell amount than vehicle control
[1] = compound: O=C(O)C(F)(OC(F)(F)C(F)(OC(F)(F)C(F)(OC(F)(F)C(F)(F)C(F)(F)F)C(F)(F)F)C(F)(F)F)C(F)(F)F [Perfluoro-(2,5,8-trimethyl-3,6,9-trioxadodecanoic)acid] (in DMSO); settings: 370 nM
Procedure: (§1)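 BioMAP Diversity Plus panel of 12 human primary cell co-culture systems (3C, 4H, LPS, SAg, BT, BF4T, BE3C, CASM3C, HDF3CGF, KF3CT, MyoF, Mphg). Compounds were added 1 h before stimulation and left for 24 h (MyoF 48 h; BT 72 h for soluble read-outs or 6 d for IgG). Biomarkers were read by ELISA, cytotoxicity by SRB, PBMC viability and proliferation by Alamar Blue. Each well value was divided by the mean of 8 DMSO control wells on the same plate and log10 transformed; duplicate blinded samples were tested at 4 concentrations.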

[2] = compound: O=C(O)C(F)(F)C(F)(F)C(F)(F)OC(F)(C(F)(F)F)C(F)(F)F [Perfluoro-4-isopropoxybutanoic acid] (in DMSO); settings: 2200 nM
Procedure: as §1

[3] = compound: OCCCC(F)(F)C(F)(F)C(F)(F)C(F)(F)C(F)(F)C(F)(F)C(F)(F)C(F)(F)F [3-(Perfluorooctyl)propanol] (in DMSO); settings: 2200 nM
Procedure: as §1

[4] = compound: C=C(C)C(=O)OCCC(F)(F)C(F)(F)C(F)(F)C(F)(F)C(F)(F)C(F)(F)F [6:2 Fluorotelomer methacrylate] (in DMSO); settings: 2200 nM
Procedure: as §1

[5] = compound: O=C(O)C(F)(F)C(F)(F)C(F)(F)C(=O)O [Hexafluoroglutaric acid] (in DMSO)
Procedure: as §1

[6] = compound: O=S(=O)(O)C(F)(F)C(F)(F)C(F)(F)C(F)(F)F [Perfluorobutanesulfonic acid] (in DMSO)
Procedure: as §1

[7] = compound: OCC(F)(F)C(F)(F)C(F)(F)C(F)(F)C(F)(F)C(F)(F)CO [1H,1H,8H,8H-Perfluorooctane-1,8-diol] (in DMSO); settings: 2200 nM
Procedure: as §1

[8] = compound: CNS(=O)(=O)C(F)(F)C(F)(F)C(F)(F)C(F)(F)C(F)(F)C(F)(F)C(F)(F)C(F)(F)F [N-Methylperfluorooctanesulfonamide] (in DMSO); settings: 2200 nM
Procedure: as §1

[9] = compound: O=C(O)CCC(F)(F)C(F)(F)C(F)(F)F [3:3 Fluorotelomer carboxylic acid] (in DMSO); settings: 2200 nM
Procedure: as §1

[10] = compound: OCC(F)(F)OC(F)(F)C(F)(F)OC(F)(F)CO [1H,1H,8H,8H-Perfluoro-3,6-dioxaoctane-1,8-diol] (in DMSO); settings: 2200 nM
Procedure: as §1

[11] = compound: FC(F)(F)COC(OCC(F)(F)F)OCC(F)(F)F [tris(Trifluoroethoxy)methane] (in DMSO); settings: 2200 nM
Procedure: as §1

[12] = compound: OCC(F)(F)C(F)(F)C(F)(F)C(F)(F)C(F)(F)C(F)(F)F [6:1 Fluorotelomer alcohol] (in DMSO); settings: 2200 nM
Procedure: as §1

[13] = compound: O=C(O)C(F)(F)C(F)(F)C(F)(F)C(F)(F)C(F)(F)F [Perfluorohexanoic acid] (in DMSO)
Procedure: as §1

[14] = compound: OCC(F)(F)C(F)(F)C(F)(F)C(F)F [1H,1H,5H-Perfluoropentanol] (in DMSO); settings: 2200 nM
Procedure: as §1

[15] = compound: FC(F)(F)C(F)(F)CNCC(F)(F)C(F)(F)F [Bis(1H,1H-perfluoropropyl)amine] (in DMSO); settings: 2200 nM
Procedure: as §1

[16] = compound: O=C(O)C(F)(OC(F)(F)C(F)(F)C(F)(F)F)C(F)(F)F [Ammonium perfluoro-2-methyl-3-oxahexanoate] (in Water)
Procedure: as §1

[17] = compound: FC(F)(F)C(F)(F)C(F)(F)C(F)(F)CCI [1H,1H,2H,2H-Perfluorohexyl iodide] (in DMSO); settings: 2200 nM
Procedure: as §1

In the case of lMphg:SRB, the “level (log10)” value [1] is reported as -0.0055 ± 0.0064, the “level (log10)” value [2] is reported as 0.002 ± 0.0099 and the “level (log10)” value [3] is reported as -0.0005 ± 0.013. The “level (log10)” value [4] was -0.012 ± 0.018, the “level (log10)” value ([5]; 2200 nM) was -0.015 ± 0.0071 and the “level (log10)” value ([5]; 6700 nM) was 0.0035 ± 0.00071. For the same test system, the “level (log10)” value ([5]; 20000 nM) was 0.003 ± 0.0085, the “level (log10)” value ([5]; 60000 nM) was -0.0045 ± 0.0035 and the “level (log10)” value ([6]; 2200 nM) was -0.0105 ± 0.015. For the same test system, the “level (log10)” value ([6]; 6700 nM) was 0.002 ± 0.013, the “level (log10)” value ([6]; 20000 nM) was -0.0155 ± 0.011 and the “level (log10)” value ([6]; 60000 nM) was -0.0155 ± 0.0064. The “level (log10)” value [7] was -0.0245 ± 0.00071, the “level (log10)” value [8] was -0.001 and the “level (log10)” value [9] was -0.008 ± 0.0042. The “level (log10)” value [10] was -0.007 ± 0.018, the “level (log10)” value [11] was -0.0105 ± 0.005 and the “level (log10)” value [12] was 0.002 ± 0.0014. For the same test system, the “level (log10)” value ([13]; 2200 nM) was -0.0195 ± 0.0035, the “level (log10)” value ([13]; 6700 nM) was -0.019 ± 0.0085 and the “level (log10)” value ([13]; 20000 nM) was -0.0175 ± 0.0064. For the same test system, the “level (log10)” value ([13]; 60000 nM) was -0.006 ± 0.0085, the “level (log10)” value [14] was -0.0025 ± 0.0064 and the “level (log10)” value [15] was -0.014 ± 0.011. For the same test system, the “level (log10)” value ([16]; 2200 nM) was -0.049 ± 0.016, the “level (log10)” value ([16]; 6700 nM) was -0.043 ± 0.0014 and the “level (log10)” value ([16]; 20000 nM) was -0.0435 ± 0.00071. For the same test system, the “level (log10)” value ([16]; 60000 nM) was -0.0395 ± 0.0035 and the “level (log10)” value [17] was -0.008 ± 0.034.

In the case of lMphg:SRB-Mphg, the “level (log10)” value [1] is reported as 0.0215 ± 0.013, the “level (log10)” value [2] is reported as 0.004 ± 0.0099 and the “level (log10)” value [3] is reported as 0.0465 ± 0.0021. For the same test system, the “level (log10)” value [4] was 0.0175 ± 0.039, the “level (log10)” value ([5]; 2200 nM) was -0.0025 ± 0.019 and the “level (log10)” value ([5]; 6700 nM) was -0.0075 ± 0.019. The “level (log10)” value ([5]; 20000 nM) was -0.0055 ± 0.005, the “level (log10)” value ([5]; 60000 nM) was 0.0075 ± 0.022 and the “level (log10)” value ([6]; 2200 nM) was 0.003 ± 0.013. For the same test system, the “level (log10)” value ([6]; 6700 nM) was 0.01 ± 0.018, the “level (log10)” value ([6]; 20000 nM) was 0.0045 ± 0.015 and the “level (log10)” value ([6]; 60000 nM) was -0.0005 ± 0.012. For the same test system, the “level (log10)” value [7] was -0.0155 ± 0.043, the “level (log10)” value [8] was 0.015 ± 0.0042 and the “level (log10)” value [9] was -0.009 ± 0.17. For the same test system, the “level (log10)” value [10] was 0.044 ± 0.035, the “level (log10)” value [11] was -0.007 ± 0.028 and the “level (log10)” value [12] was 0.015 ± 0.018. For the same test system, the “level (log10)” value ([13]; 2200 nM) was 0.006 ± 0.017, the “level (log10)” value ([13]; 6700 nM) was -0.0005 ± 0.011 and the “level (log10)” value ([13]; 20000 nM) was 0.003 ± 0.0071. The “level (log10)” value ([13]; 60000 nM) was 0.0115 ± 0.0035, the “level (log10)” value [14] was 0.0175 ± 0.054 and the “level (log10)” value [15] was -0.019 ± 0.017. The “level (log10)” value ([16]; 2200 nM) was 0 ± 0.0099, the “level (log10)” value ([16]; 6700 nM) was -0.0535 ± 0.036 and the “level (log10)” value ([16]; 20000 nM) was -0.046 ± 0.041. For the same test system, the “level (log10)” value ([16]; 60000 nM) was -0.054 ± 0.041 and the “level (log10)” value [17] was 0.011 ± 0.017.

In the case of lMphg:sIL-10, the “level (log10)” value [1] is reported as -0.004 ± 0.0057, the “level (log10)” value [2] is reported as 0.0085 ± 0.0092 and the “level (log10)” value [3] is reported as -0.0005 ± 0.05. The “level (log10)” value [4] was 0.0765 ± 0.016, the “level (log10)” value ([5]; 2200 nM) was -0.0405 ± 0.07 and the “level (log10)” value ([5]; 6700 nM) was -0.0745 ± 0.037. For the same test system, the “level (log10)” value ([5]; 20000 nM) was -0.0775 ± 0.056, the “level (log10)” value ([5]; 60000 nM) was -0.102 ± 0.0078 and the “level (log10)” value ([6]; 2200 nM) was 0.019 ± 0.1. The “level (log10)” value ([6]; 6700 nM) was 0.043 ± 0.099, the “level (log10)” value ([6]; 20000 nM) was -0.0475 ± 0.032 and the “level (log10)” value ([6]; 60000 nM) was 0.0065 ± 0.049. For the same test system, the “level (log10)” value [7] was -0.0535 ± 0.069, the “level (log10)” value [8] was -0.0355 ± 0.005 and the “level (log10)” value [9] was 0.029 ± 0.061. The “level (log10)” value [10] was 0.069 ± 0.023, the “level (log10)” value [11] was 0.002 ± 0.0014 and the “level (log10)” value [12] was 0.0085 ± 0.1. The “level (log10)” value ([13]; 2200 nM) was -0.041 ± 0.083, the “level (log10)” value ([13]; 6700 nM) was -0.0285 ± 0.0092 and the “level (log10)” value ([13]; 20000 nM) was -0.0375 ± 0.046. The “level (log10)” value ([13]; 60000 nM) was -0.0945 ± 0.021, the “level (log10)” value [14] was -0.0205 ± 0.042 and the “level (log10)” value [15] was -0.061 ± 0.021. The “level (log10)” value ([16]; 2200 nM) was -0.332 ± 0.037, the “level (log10)” value ([16]; 6700 nM) was -0.36 ± 0.035 and the “level (log10)” value ([16]; 20000 nM) was -0.328 ± 0.018. The “level (log10)” value ([16]; 60000 nM) was -0.467 ± 0.13 and the “level (log10)” value [17] was -0.0685 ± 0.071.

Source: the supplement of paper PMC10331698
